PubChem BioAssay AID588590 (National Center for Advancing Translational Sciences (NCATS), 2011)
Hit rate of the full screen: of about 390,000 compounds, about 4,000 (1%) were called active. This list was built around the results that the source calls inconclusive (neither active nor inactive); the mix of calls is not that of the screen. Calls come from the whole dose curve; as a rule, active = well fitted inhibition curve with a large enough effect; inconclusive = small, poorly fitted or top-dose-only effect, or another doubt; inactive = no such curve, though single readings can be large or run the other way. Potencies of inconclusive entries are doubtful fits and often do not repeat.

By UniProt entry, the sequences of proteins in these tests, tags left out. Where a name states a change or a piece, a line headed by the entry shows the natural chain unless it says otherwise.
UniProt Q9UNA4: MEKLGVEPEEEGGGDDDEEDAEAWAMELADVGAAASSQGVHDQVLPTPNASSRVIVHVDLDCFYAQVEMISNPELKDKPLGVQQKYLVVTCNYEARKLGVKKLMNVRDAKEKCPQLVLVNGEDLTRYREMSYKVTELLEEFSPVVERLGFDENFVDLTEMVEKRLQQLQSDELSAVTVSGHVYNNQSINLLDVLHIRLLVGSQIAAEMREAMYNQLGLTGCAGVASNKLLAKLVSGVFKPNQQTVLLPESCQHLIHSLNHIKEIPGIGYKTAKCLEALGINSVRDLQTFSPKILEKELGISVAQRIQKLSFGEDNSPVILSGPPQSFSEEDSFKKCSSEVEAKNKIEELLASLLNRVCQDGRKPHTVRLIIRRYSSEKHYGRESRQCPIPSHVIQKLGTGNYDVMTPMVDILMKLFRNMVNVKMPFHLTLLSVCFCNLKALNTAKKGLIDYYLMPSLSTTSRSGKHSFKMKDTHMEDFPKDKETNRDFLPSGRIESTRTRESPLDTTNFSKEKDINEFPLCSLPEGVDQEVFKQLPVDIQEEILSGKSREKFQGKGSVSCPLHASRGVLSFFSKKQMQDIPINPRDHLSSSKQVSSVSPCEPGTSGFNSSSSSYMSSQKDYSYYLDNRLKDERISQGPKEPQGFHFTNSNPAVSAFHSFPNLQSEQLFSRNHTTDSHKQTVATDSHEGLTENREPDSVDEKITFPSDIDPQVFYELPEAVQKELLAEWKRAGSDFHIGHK

Molecular target: DNA polymerase iota (Homo sapiens) (UniProt Q9UNA4)
Assay: qHTS for Inhibitors of Polymerase Iota
Details: Pol iota fluorescent replication assay, 10 min; series mostly up to 115 µM; activity, negative = inhibition: at the top concentration
Procedure, shortened: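 Fluorescent replication assay read twice, at 0 min and 10 min after adding 50 nM (final) substrate. Enzyme (10 nM) and compounds were first incubated 15 min at room temperature; enzyme-free buffer wells were negative controls.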
Potency is the fitted concentration of half-maximal effect.

Compound	Potency	activity, negative = inhibition
CN1CCN(CC(=O)Nc2cc(S(=O)(=O)N3CCOCC3)ccc2Cl)CC1	inconclusive: 89.1 µM [inhibitor, partial curve]	–
COc1cccc(CNC(=O)Nc2cn(CC(C)C)c(=O)c3ccccc23)c1	inconclusive: 79.4 µM [inhibitor, partial curve, poor fit]	–
Cc1ccc2cc(C)c(SCC(=O)NCC3CCCO3)nc2c1 (stereo not given)	inconclusive: 89.1 µM [inhibitor, single point]	–
COCCOC(=O)c1[nH]c2c(c1C)C(=O)CC(c1ccc(N(C)C)cc1)C2 (stereo not given)	–	inactive: 18%
CCOC(=O)c1ccc(NC2c3ccccc3C(=O)N2c2cccnc2)cc1 (stereo not given)	inconclusive: 6.31 µM [inhibitor, full curve, poor fit]	–
COCCN(CC(=O)NCC1CCCO1)C(=O)CCC(=O)Nc1cc(C)ccn1 (stereo not given)	inconclusive: 89.1 µM [inhibitor, single point]	–
Cc1ccc2nccnc2c1	–	inactive: -17.9%
COc1ccc(S(=O)(=O)N(CC(=O)N2CCOCC2)Cc2ccccc2)cc1C	inconclusive: 100 µM [inhibitor, single point]	–
CCOC(=O)c1cc(-c2ccc(F)cc2)n(CCC(=O)Nc2nc3cc(C)c(C)cc3s2)c1C	–	inactive: 26.1%
CCS(=O)(=O)N1Cc2ccccc2CC1C(=O)N1CCN(c2ccccc2)CC1 (stereo not given)	inconclusive: 22.4 µM [inhibitor, full curve, poor fit]	–
CN1CCN(S(=O)(=O)c2ccc(NC(=S)NC(=O)c3ccc(Cl)cc3)cc2)CC1	inconclusive: 15.8 µM [inhibitor, partial curve, poor fit]	–
Cc1cc(C)cc(C(=O)NC2C(=O)N3C(C(=O)O)=C(CSc4nnc(C)s4)CSC23)c1 (stereo not given)	inconclusive: 12.6 µM [inhibitor, full curve]	–
O=Nc1c(O)n(Cc2ccc(Cl)cc2Cl)c2ccccc12	inconclusive: 39.8 µM [inhibitor, partial curve, poor fit]	–
O=C1/C(=C/N(C(=O)c2ccco2)c2ccc(Br)cc2)Sc2ccccc21	inconclusive: 39.8 µM [inhibitor, single point]	–
CSc1ccccc1NC(=O)c1ccccc1	–	inactive: 14.3%
Cn1c(CNC(=O)CSc2nc(-c3ccccc3F)nc3cc(=O)[nH]n23)nc2ccccc21	inconclusive: 79.4 µM [inhibitor, single point]	–
O=C(NC1CCN(C(=O)C2CCCCC2)CC1)c1ccccc1	inconclusive: 100 µM [inhibitor, single point]	–
CN(C)c1ccc(/C=C2\CCCc3c2nc2ccccc2c3C(=O)O)cc1	–	inactive: 115%
Cc1cc(CN(C)C(=O)CC2C(=O)NCCN2Cc2ccc(-c3ccccc3)cc2)on1 (stereo not given)	–	inactive: 20%
Cc1ccc(CSc2nnc(SCC(=O)N/N=C/c3c[nH]c4ccccc34)s2)cc1	active: 3.55 µM	–
Cc1cc(C(=O)NNS(=O)(=O)c2cc(C(=O)O)ccc2Cl)c(C)n1-c1ccccc1	inconclusive: 89.1 µM [inhibitor, single point]	–
CN(C(=O)CSc1nncn2c1cc1occc12)c1ccccc1	–	inactive: 20.9%

Compound	Potency	activity, negative = inhibition
Cc1nc2nc(-c3ccc(F)cc3)cn2nc1C	inconclusive: 12.6 µM [inhibitor, partial curve, poor fit]	–
CCCCn1c(N)c(N(CCOC)C(=O)c2ccc(C)o2)c(=O)[nH]c1=O	inconclusive: 56.2 µM [inhibitor, partial curve, poor fit]	–
COc1ccc(NC(=O)Nc2nnc(C(C)C)s2)cc1	inconclusive: 79.4 µM [inhibitor, partial curve]	–
COc1ccc(C2/C=C\CN(S(=O)(=O)CC34CCC(CC3=O)C4(C)C)CC(=O)N2Cc2ccc(F)cc2)cc1 (stereo not given)	–	inactive: 1.73%
C/C=C(\C)C(=O)O[C@H](c1cc2ccc(=O)oc2cc1OC)[C@@H](O)C(C)(C)O	inconclusive: 79.4 µM [inhibitor, single point]	–
COc1ccc(NC(=O)N/C=C/c2ccco2)cc1	inconclusive: 20 µM [inhibitor, full curve, poor fit]	–
COc1ccc(-c2nnc(Nc3nc4c(OC)cccc4s3)o2)c(OC)c1	inconclusive: 79.4 µM [inhibitor, single point]	–
Cc1ccccc1NC(=O)COC(=O)c1c(-c2ccccc2)noc1C	–	inactive: 26.8%
CCOC(=O)CNc1nc(OCC#N)nc(N2CCOCC2)n1	inconclusive: 39.8 µM [inhibitor, single point]	–
CC(=O)c1cccc(N(CC(=O)N2CCCC2)S(C)(=O)=O)c1	inconclusive: 89.1 µM [inhibitor, single point]	–
COc1ccc(OC)c(C(=O)NC(CC(N)=O)c2ccc(N3CCN(c4ccccn4)CC3)c([N+](=O)[O-])c2)c1 (stereo not given)	inconclusive: 89.1 µM [inhibitor, single point]	–
COc1ccc(CNC(=O)CCS(=O)(=O)c2cc3c4c(c2)CCN4C(=O)CC3)cc1OC	–	inactive: 2.57%
Cc1ccc(/C=C/C(=O)NC2CCCCCCC2)o1	inconclusive: 39.8 µM [inhibitor, partial curve, poor fit]	–
CCc1nnc(NC(=O)CN2CCN(Cc3ccc(C)cc3)CC2)s1	inconclusive: 11.2 µM [inhibitor, full curve, poor fit]	–
Oc1ccccc1-c1nc2c3ccccc3c3ccccc3c2[nH]1	inconclusive: 39.8 µM [inhibitor, partial curve]	–
CC(C)c1ccc(N(CC(=O)NCc2ccc(F)cc2)C(=O)c2snc(C(N)=O)c2N)cc1	inconclusive: 100 µM [inhibitor, single point]	–
CCOC(=O)Cc1cc(=O)n2[nH]c(C)c(-c3ccc(Cl)cc3)c2n1	inconclusive: 89.1 µM [inhibitor, full curve]	–
COc1cc(NS(=O)(=O)c2ccc(NC(=O)COc3ccc(Cl)cc3Cl)cc2)nc(OC)n1	inconclusive: 89.1 µM [inhibitor, single point]	–
Cc1nonc1C(=O)N/N=C/c1ccncc1	–	inactive: 51.1%
CC(C)(C)c1ccc(C(=O)N/C(=C/c2cccs2)C(=O)NCc2ccco2)cc1	inconclusive: 79.4 µM [inhibitor, partial curve, poor fit]	–
O=C(CCNS(=O)(=O)c1ccc(Br)s1)Nc1ccc(Br)cc1	–	inactive: -1.84%
Cc1nn(-c2ccccc2)c2nc(-c3ccco3)cc(C(=O)O)c12	inconclusive: 14.1 µM [inhibitor, full curve, poor fit]	–

Given with bars between the fields: part of the list above
Compound | Potency | activity, negative = inhibition
COc1ccc(-c2nnc(Nc3nc4c(OC)cccc4s3)o2)c(OC)c1 | inconclusive: 79.4 µM [inhibitor, single point] | –
Cc1ccccc1NC(=O)COC(=O)c1c(-c2ccccc2)noc1C | – | inactive: 26.8%
CCOC(=O)CNc1nc(OCC#N)nc(N2CCOCC2)n1 | inconclusive: 39.8 µM [inhibitor, single point] | –

(list continues)

Compound	Potency	activity, negative = inhibition
Cc1cc(Nc2nn(C)c(N)c2C#N)ccc1F	–	inactive: 6.44%
CCOC(=O)C1CCN(C(=O)CCc2nc3sc4c(c3c(=O)[nH]2)CCCC4)CC1	active: 28.2 µM	–
CCOc1ccccc1N(CC)C(=O)Cn1ncc2c1-c1ccccc1OC2	–	inactive: 28.1%
COc1ccc(C(=O)NCc2ccccc2)cc1S(=O)(=O)N1CCCc2ccccc21	inconclusive: 25.1 µM [inhibitor, full curve, poor fit]	–
CC(C)NCC(O)c1cc(O)cc(O)c1 (stereo not given)	inconclusive: 79.4 µM [inhibitor, partial curve, poor fit]	–
CN[C@H](C(=O)NC[C@H]1O[C@@H](n2cnc3c(N)ncnc32)[C@H](O)[C@@H]1O)[C@@H](C)OCc1ccccc1	inconclusive: 0.708 µM [inhibitor, full curve, poor fit]	–
O=C(CS(=O)(=O)c1nc(-c2ccc(Cl)cc2)cn1-c1ccccc1)Nc1cccc(Cl)c1	inconclusive: 7.08 µM [inhibitor, partial curve, poor fit]	–
CC1CCN(C(=O)CSc2nc3c(cnn3-c3ccc(Cl)cc3)c(=O)[nH]2)CC1	inconclusive: 12.6 µM [inhibitor, partial curve, poor fit]	–
CCc1ccc(NC(=O)N2CCN(c3nnc(C)c4c(C)n(-c5ccc(Cl)cc5)nc34)CC2)cc1	inconclusive: 22.4 µM [inhibitor, partial curve, poor fit]	–
COc1ccc(N2Cc3cccc(C(=O)N4CCN(C(=O)c5ccco5)CC4)c3C2=O)cc1	inconclusive: 11.2 µM [inhibitor, single point]	–
CCN(CC)S(=O)(=O)c1cccc(-c2nnc(SCC(=O)NC)n2N)c1	inconclusive: 89.1 µM [inhibitor, single point]	–
COC(=O)C1=C(C(=O)OC)[C@]2([C@@H]3C/C=C\CN[C@@H](Cc4ccccc4)C(=O)N3Cc3ccccc3)C=C[C@H]1O2	–	inactive: -3.34%
N#Cc1c(N)n(CCNC(=O)c2cccs2)c2nc3ccccc3nc12	inconclusive: 31.6 µM [inhibitor, single point]	–
Cc1ccc(NC(=O)C2=C(c3ccccc3)S(=O)(=O)CCS2(=O)=O)cc1	inconclusive: 17.8 µM [inhibitor, partial curve, poor fit]	–
COc1ccc(C2CC(=O)c3cnc(NC(=O)c4ccco4)nc3C2)cc1 (stereo not given)	–	inactive: 23.6%
CCOC(=O)c1c(C)c(C(=O)NCCCOC)c(C)n1C	inconclusive: 79.4 µM [inhibitor, partial curve, poor fit]	–
COc1ccc2cc3c(N)c(C(=O)N4CCCC4)sc3nc2c1	inconclusive: 20 µM [inhibitor, partial curve]	–
COc1ccc(-c2c(C#N)c(SCC(=O)Nc3ccc(C)c(C)c3)nc(C)c2C(=O)Nc2ccccc2)cc1OC	–	inactive: 21.7%
O=C(C[n+]1ccccc1Br)c1ccc(I)cc1	–	inactive: 15.2%
Cn1c(CSc2nc3ccccc3s2)nnc1SCC(=O)NCCN1CCOCC1	inconclusive: 89.1 µM [inhibitor, single point]	–
c1ccc(NC2=NCCN2CCCC2CCCC2)cc1	inconclusive: 5.62 µM [inhibitor, partial curve, poor fit]	–
